In article PMC6831727:

Molecular target: SmGRAS2 (Salvia miltiorrhiza)
Experiment: two-hybrid; SmGRAS1-AD (pGADT7) and SmGRAS2-BD (pGBKT7) co-transformed into strain Y2H; selection on SD/-Leu/-Trp, then growth on SD/-Ade/-His/-Leu/-Trp with AbA and alpha-X-gal; 3-day incubation at 29°C

binding: binds
Substance: SmGRAS1 (from UniProt A0A291I303)

These are yes or no findings as the source states them, for the method shown. Binding can be weak; no strength is given.
